Measurements reported in PubChem BioAssay AID686938 (Drosophila RNAi Screening Center, 2013).

Screen: 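Fly genes required for calcium entry once internal stores are emptied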 (primary screen)
Cells: Drosophila S2R+ cells
Reagents: long dsRNA against Drosophila genes, about 0.25 µg dsRNA per well, roughly 10,000 cells
Duration: 5 days of knock-down before the calcium assay
Conditions: thapsigargin (SERCA pump blocker) to empty calcium stores; entry signal taken 4 min after adding it
Measurement: 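Duplicate raw fluo-4 intensities per well from a plate reader, at rest and four minutes after thapsigargin emptied calcium stores; entry-to-rest ratio filled for only some wells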
Direction: calcium entry signal: higher = stronger calcium signal after store depletion; entry to resting ratio: higher = more calcium entry relative to resting level; resting calcium signal: higher = higher resting calcium signal
Call rule: 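Hit if the duplicate-averaged plate z-score for entry over resting signal is under −3; wells with weak total dye signal (Fmax z < −2) or more than 5 off-targets removed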
Calls: active = strongly reduced calcium entry; inactive = no strong reduction
The deposit covers about 23,000 reagents; this is an unselected part of those with a known target gene and a result. In the full data, 75 (0.33%) were called active. 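Raw plate signals without normalisation; calls rest on plate z-scores that were not deposited; ratio present for only 364 wells.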 The numbers tell different reagents against one gene apart. Not given: the dose of the treatment.

no.	target	reagent	calcium entry signal, replicate 1 (fluorescence units)	calcium entry signal, replicate 2 (fluorescence units)	entry to resting ratio	resting calcium signal, replicate 1 (fluorescence units)	resting calcium signal, replicate 2 (fluorescence units)	call
1	CG34193	1	3.44e7	4.99e7		1.58e7	2.24e7	inactive
2	CG9672	1	2.10e7	2.37e7		1.15e7	1.12e7	inactive
3	CG13937	1	3.65e7	3.11e7		1.95e7	1.70e7	inactive
4	FucTC	1	3.38e7	4.60e7		1.55e7	2.00e7	inactive
5	cg	1	2.40e7	2.64e7		1.93e7	1.55e7	inactive
6	cg	2	3.05e7	2.95e7		1.81e7	1.48e7	inactive
7	CG17816	1	5.05e7	3.48e7		2.11e7	1.71e7	inactive
8	RpS15	1	1.39e7	9.57e6		1.17e7	7.68e6	inactive
9	rpk	1	3.87e7	4.04e7		1.77e7	2.62e7	inactive
10	rpk	2	4.26e7	4.10e7		2.34e7	2.08e7	inactive
11	Dora	1	5.64e7	4.84e7		2.76e7	2.02e7	inactive
12	Dora	2	5.88e7	2.76e7		2.69e7	1.28e7	inactive
13	Dora	3	5.71e7	4.13e7		2.76e7	1.91e7	inactive
14	Dora	4	5.87e7	4.79e7		3.02e7	2.35e7	inactive
15	CG11449	1	2.97e7	5.17e7		1.45e7	2.23e7	inactive
16	CG33268	1	3.09e7	3.49e7		1.66e7	1.55e7	inactive
17	CG9135	1	4.32e7			2.52e7		inactive
18	bchs	1	3.36e7	2.99e7		1.56e7	1.47e7	inactive
19	CG10280	1	4.36e7	6.14e7		2.01e7	2.66e7	inactive
20	CG6497	1	2.47e7	4.95e7		1.43e7	1.93e7	inactive
21	CG6497	2	2.44e7	3.21e7		1.34e7	1.39e7	inactive
22	CG11961	1	3.11e7	3.00e7		1.47e7	1.55e7	inactive
23	Pmm2	1	2.26e7	2.48e7		1.24e7	1.22e7	inactive

A run of entries taken from the entries so far, for reference:
no.	target	reagent	calcium entry signal, replicate 1 (fluorescence units)	calcium entry signal, replicate 2 (fluorescence units)	entry to resting ratio	resting calcium signal, replicate 1 (fluorescence units)	resting calcium signal, replicate 2 (fluorescence units)	call
4	FucTC	1	3.38e7	4.60e7		1.55e7	2.00e7	inactive
5	cg	1	2.40e7	2.64e7		1.93e7	1.55e7	inactive
6	cg	2	3.05e7	2.95e7		1.81e7	1.48e7	inactive
7	CG17816	1	5.05e7	3.48e7		2.11e7	1.71e7	inactive

The list goes on.
no.	target	reagent	calcium entry signal, replicate 1 (fluorescence units)	calcium entry signal, replicate 2 (fluorescence units)	entry to resting ratio	resting calcium signal, replicate 1 (fluorescence units)	resting calcium signal, replicate 2 (fluorescence units)	call
24	ClC-a	1	3.39e7	4.24e7		1.74e7	2.23e7	inactive
25	ClC-a	2	3.14e7	3.92e7		1.67e7	2.02e7	inactive
26	ClC-a	3	3.24e6	3.28e7		2.93e6	1.51e7	inactive
27	CG7656	1	4.04e7	4.80e7		1.84e7	3.04e7	inactive
28	Chd3	1	3.34e7	5.57e7		1.49e7	2.23e7	inactive
29	trpl	1	3.65e7	3.47e7		1.74e7	1.43e7	inactive
30	trpl	2	4.10e7	3.78e7		1.99e7	1.96e7	inactive
31	RpL40	1	1.82e7	1.63e7		1.12e7	1.06e7	active
32	CG6885	1	2.71e7	5.15e7		1.57e7	2.15e7	inactive
33	Acox3	1	2.27e7	2.23e7		1.27e7	1.09e7	inactive
34	Arp1	1	3.83e7	3.64e7		1.99e7	1.91e7	inactive
35	VhaM9.7-d	1	2.99e7	5.13e7		1.44e7	6.46e7	inactive
36	CanB2	1	4.75e7	2.97e7		2.29e7	1.61e7	inactive
37	CG4563	1	4.49e7	4.25e7		2.15e7	1.88e7	inactive
38	dup	1	2.21e7	5.35e7		1.58e7	2.39e7	inactive
39	CG42792	1	3.06e7	4.61e7		1.73e7	2.18e7	inactive
40	JMJD6	1	4.60e7	2.95e7		2.23e7	1.29e7	inactive
41	CG3505	1	3.11e7	3.49e7		1.43e7	1.61e7	inactive
42	CG13603	1	3.01e7	2.67e7		1.37e7	1.19e7	inactive
43	Nthl1	1	4.42e7	4.24e7		2.03e7	1.75e7	inactive
44	CG16782	1	3.39e7	6.85e7	2.1	1.60e7	2.64e7	inactive
45	CG32219	1	3.65e7	3.36e7		1.69e7	1.55e7	inactive
46	CG12056	1	3.47e7	3.74e7		1.70e7	1.82e7	inactive
47	Cpr76Bc	1	2.54e7	4.91e7		1.25e7	1.99e7	inactive
48	CG32700	1	3.50e7	4.55e7		1.80e7	2.17e7	inactive
49	CG32700	2	3.78e7	4.13e7		1.86e7	1.88e7	inactive
50	CG3397	1	2.71e7	4.62e7		1.29e7	1.88e7	inactive
51	cno	1	2.01e7	3.05e7		1.05e7	1.40e7	inactive
52	cno	2	2.36e7	1.93e7		1.49e7	1.06e7	inactive
53	cno	3	3.69e7	2.77e7		1.46e7	1.14e7	inactive
54	CG13097	1	2.69e7			1.63e7		inactive
55	GstE10	1	4.48e7	5.36e7		2.16e7	2.53e7	inactive
56	RasGAP1	1	3.17e7	4.89e7		1.60e7	2.19e7	inactive
57	CG14020	1	2.18e7	2.46e7		1.11e7	1.05e7	inactive
58	cv-2	1	3.08e7	5.47e7		1.53e7	2.14e7	inactive
59	cv-2	2	4.66e7	5.20e7		2.25e7	2.20e7	inactive
